Data published in PubChem BioAssay AID743266 (National Center for Advancing Translational Sciences (NCATS), 2014).
“And” between values parts separate entries of the source, which are not always exact repeats. Equal values may be shown once. Screen size: about 410,000 compounds; about 310 (0.076%) were called active. Inconclusive results, whose numbers are uncertain, are shown with a selection of clear calls. Calls follow the shape of the dose curve; as a rule, active = well fitted activation curve with a large enough effect; inconclusive = small, poorly fitted or top-dose-only effect, or another doubt; inactive = no such curve, though single readings can be large or run the other way. Where the call is inconclusive, the potency comes from a doubtful curve fit.

By UniProt entry, the sequences of proteins in these tests, tags left out.
UniProt Q03431, whole entry, looked up: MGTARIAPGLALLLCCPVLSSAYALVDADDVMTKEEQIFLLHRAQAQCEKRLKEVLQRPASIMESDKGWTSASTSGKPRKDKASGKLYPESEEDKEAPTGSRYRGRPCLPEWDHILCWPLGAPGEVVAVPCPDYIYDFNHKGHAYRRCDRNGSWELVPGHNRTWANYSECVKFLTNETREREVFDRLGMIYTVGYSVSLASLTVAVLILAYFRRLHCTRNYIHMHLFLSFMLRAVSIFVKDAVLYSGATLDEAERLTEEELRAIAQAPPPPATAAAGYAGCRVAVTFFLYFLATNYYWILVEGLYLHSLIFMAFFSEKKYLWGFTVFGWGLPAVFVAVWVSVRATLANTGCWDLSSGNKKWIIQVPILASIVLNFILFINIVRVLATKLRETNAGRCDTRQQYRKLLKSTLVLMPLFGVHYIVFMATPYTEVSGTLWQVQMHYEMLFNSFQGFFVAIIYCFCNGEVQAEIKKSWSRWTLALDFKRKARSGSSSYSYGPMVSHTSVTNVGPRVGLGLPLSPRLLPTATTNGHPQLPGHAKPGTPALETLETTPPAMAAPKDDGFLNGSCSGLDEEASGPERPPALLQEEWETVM

What follows are compounds tested against Parathyroid hormone/parathyroid hormone-related peptide receptor (Homo sapiens) (UniProt Q03431) (assay: qHTS for PTHR1 Agonists: Primary Screen). Conditions: HEK293 GP2 PTHR1 cells, GloSensor cAMP luminescence, 1 h; activation: at 115 µM (top of the series) unless noted; series mostly up to 115 µM.
Summary of the method: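 HEK-293-derived GP2 cells expressing PTHR1 and a GloSensor cAMP reporter, 3,000/well, plated overnight, given luciferin plus IBMX (each 0.5 mM as added) for 1 h at 37 °C, then compound for 1 h at 37 °C. Luminescence was read after 15 min at room temperature.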
Also: nearly all actives have a fitted effect of over 55% in size.
Potency is read from the fitted curve at half-maximal effect.

Potency, inactive:
C/C(=N\Nc1ccc(Cl)c(C(=O)O)c1)c1ccc2c(c1)OCO2, Cc1ccc(NC(=O)C(c2ccccc2)N2Cc3ccccc3C2=O)cc1Cl (centres undefined), CC1CCCCN1C(=O)CSc1nc(C2CC2)nc2ccccc12 (centres undefined), Cc1snc(SCC(=O)c2ccc(F)cc2)c1C#N, O=C1CC(N(CCc2ccccc2)C(=S)Nc2ccccc2)C(=O)N1c1ccc(Br)cc1 (centres undefined), O=S(=O)(Cc1cc(-c2ccc(Cl)cc2)no1)c1ccccc1, O=C(CC1Sc2ccccc2NC1=O)NNc1cccc(Cl)c1Cl (centres undefined), CCCCn1nnnc1SCC(=O)N(CC)CC, O=C(COc1ccc2ccc(=O)oc2c1)Nc1cccc(S(=O)(=O)N2CCCCC2)c1, CC(=O)c1ccc(-c2ccc([C@H]3[C@@H]4C=CCC[C@@]4(C)C(=O)N3Cc3ccccc3)c(F)c2)cc1, CN(C)n1cnc2ccsc2c1=O, O=C(Oc1c(CN2CCOCC2)cc(Cl)c2cccnc12)c1ccccc1F, C#CCn1c(S(=O)(=O)Cc2ccc(F)cc2)nc(-c2ccccc2)c1-c1ccccc1, CCOc1ccccc1N1CC(C(=O)Nc2cccc(S(=O)(=O)N3CCCCC3)c2)CC1=O (centres undefined), O=C(CCN1CCN(c2ccc(Cl)cc2)CC1)Nc1nccs1, CCOc1cc(C(=O)N(CC)CC(=O)Nc2ccc3c(c2)OCCO3)ccc1OC, CC(C)NCC(O)COC1CCC(C(C)(C)C)CC1 (centres undefined), Cc1cccc(Nc2c3c(nc4nncn24)CCC3)c1, C#CCn1c(=NC(=O)c2ccccc2[N+](=O)[O-])sc2cc(S(C)(=O)=O)ccc21, Nc1ccc2c(c1)Cc1cc([N+](=O)[O-])ccc1-2

Potency, inconclusive:
CCc1ccccc1NC(=O)CN1C(=O)c2cccnc2Oc2ccc(Cl)cc21 31.6 µM [activator, single point], COCCN(C(=O)CCC(=O)Nc1cc(C)on1)C(C(=O)NC1CCCC1)c1ccc(C)cc1 (centres undefined) 35.5 µM [activator, partial curve, poor fit], CC1=C(C(N)=O)C(c2ccncc2)n2nc(-c3ccccc3Cl)nc2N1 (centres undefined) 158 µM [activator, single point], Cc1ccc(Cl)cc1NC(=O)CN1C(=O)COc2ccc(S(=O)(=O)N3CCOCC3)cc21 70.8 µM [activator, partial curve, poor fit] and 22.4 µM [activator, single point], Cc1nnc(SCc2cccc([N+](=O)[O-])c2)o1 20 µM [activator, single point], COc1ccc(C(=O)Nn2cnnc2)cc1OC 7.08 µM [activator, full curve, poor fit], CCCC1Cc2c(sc3nc(SC)nc(N)c23)CO1 (centres undefined) 25.1 µM [activator, partial curve], Cc1ccc2cccc(NC(=O)c3ccc(-c4cccc([N+](=O)[O-])c4)o3)c2n1 39.8 µM [activator, partial curve, poor fit], CC(Sc1nnc(N)s1)C(=O)Nc1ccc2c(c1)OCO2 (centres undefined) 7.94 µM [activator, full curve, poor fit], Cc1cc(NC(=O)C2CC2)ccc1NC(=O)c1cccs1 6.31 µM [activator, full curve, poor fit], CSc1cccc(NC(=O)CCNC(=O)c2ccco2)c1 15.8 µM [activator, partial curve, poor fit], COc1cc(CN2CCCC(C)C2)cc([N+](=O)[O-])c1O (centres undefined) 0.398 µM [activator, full curve, poor fit], CCCNC(=O)C1CCN(S(=O)(=O)c2ccc3c(c2)CCCN3C(C)=O)CC1 44.7 µM [activator, partial curve], COc1ccccc1CNC(=O)COC(=O)Cc1cccc(F)c1 14.1 µM [activator, partial curve, poor fit], CC(C)CCNC(=O)C1CCC(Cn2c(=O)c3sccc3n(CC(=O)NC(C)C)c2=O)CC1 (centres undefined) 25.1 µM [activator, partial curve, poor fit], COc1ccc(C(=O)N[C@H](C(=O)NC2CCCCC2)C(C)C)cc1 126 µM [activator, single point], CCOC(=O)c1ccccc1NC(=O)c1sc2nc3n(c(=O)c2c1C)CCCC3 44.7 µM [activator, partial curve, poor fit], O=C(NCc1ccc2c(c1)OCO2)c1cc2c(s1)CS(=O)(=O)C2 3.98 µM [activator, partial curve, poor fit], O=S(=O)(Cc1ccc(Cl)cc1)N1CCN(Cc2ccccc2)CC1 44.7 µM [activator, single point], CC1CCCC(C)N1C(=O)COC(=O)Cc1ccc(Cl)cc1 (centres undefined) 1.26 µM [activator, full curve, poor fit], Cc1cc(C(=O)NNC(=O)c2cccs2)c(C)o1 15.8 µM [activator, partial curve], C=C(c1cccc2ccccc12)P(=O)(O)O 50.1 µM [activator, partial curve, poor fit], Cc1ccc(S(=O)(=O)c2nc(-c3cccc(C)c3)oc2N2CCN(c3ccccc3)CC2)cc1 7.08 µM [activator, full curve, poor fit], Cc1cc(NC(=O)CCC(=O)N(c2ccccc2)C(C(=O)NC2CCCC2)c2ccccc2)no1 (centres undefined) 50.1 µM [activator, partial curve, poor fit], CCCCN(C(=O)CSCC(=O)Nc1ccc(C)cc1)c1c(N)n(CC(C)C)c(=O)[nH]c1=O 158 µM [activator, single point], CCC(C)(C)NS(=O)(=O)c1cc(CN2C(=O)c3cccnc3C2=O)ccc1OC 126 µM [activator, single point], Cc1nc2c(C)cccn2c1/C(O)=C1\C(=O)C(=O)N(CCN2CCOCC2)C1c1ccncc1 (centres undefined) 11.2 µM [activator, partial curve, poor fit], Cc1cc(C)cc(NC(=O)CN2CCN(c3ncccn3)CC2)c1 35.5 µM [activator, partial curve, poor fit], COc1ccc(/C=C(\C#N)c2n[nH]c(Cn3cncn3)n2)cc1 25.1 µM [activator, partial curve], COc1ccc(S(=O)(=O)Nc2cc3c(cc2NCc2ccccc2)n(C)c(=O)n3C)cc1OC 100 µM [activator, single point], Cc1cc(C)n(-c2nc3ccccc3nc2Nc2cc(C(=O)O)ccc2C)n1 126 µM [activator, single point], CCSc1ncc(Cl)c(C(=O)Nc2c(C(=O)Nc3ccc(Cl)cc3)oc3ccccc23)n1 126 µM [activator, single point], CCOC(=O)c1cc(OCC(=O)NC(C)C(C)C)cc(C(=O)OCC)c1 (centres undefined) 126 µM [activator, single point], Cn1c(=O)c2c(ncn2CC(=O)OCC(=O)NCc2ccc(Cl)cc2)n(C)c1=O 0.767 µM [activator, full curve]

activation, inconclusive:
c1ccc2sc(-c3ccc4c(c3)OCO4)nc2c1 34.5% [activator], COc1cc(NC(=O)COc2cc(C)cc3oc(=O)c(C)c(C)c23)cc(OC)c1OC 32.8% [activator], O=C(CCNC(=O)N1CC(=O)Nc2ccccc21)NCc1cccc(Cl)c1 34.3% [activator], CC1=CC(C)C2C(=O)N(c3ccccc3)C(=O)C2C1 (centres undefined) 43.1% [activator], O=C(COc1ccc(Br)cc1)Nc1ccc2oc(=O)ccc2c1 -59.6% [activator], COc1ccc2nc(C)cc(N3CCN(S(=O)(=O)c4ccccc4F)CC3)c2c1 -93.4% [activator], C=CCNC(=O)COC(=O)c1ccccc1C(=O)N(C)C1CCCCC1 37% [activator], COc1ccc(CCN2CC(C(=O)NCCN3CCCC3=O)CCC2=O)cc1 (centres undefined) 36.8% [activator], O=C1C2C3C=CC(O3)C2C(=O)N1N=C1CCCCC1 (centres undefined) -37.5% [activator], C=CCNC(=O)CSc1nc2sc3c(c2c(=O)n1CCCOC)CCC3 34.3% [activator], COc1cc(/C=N/NC(=O)c2ccncc2)ccc1OCC(=O)Nc1cccc([N+](=O)[O-])c1 13.4% [activator], Cc1c(OCC(=O)NCCCN2CCCC2=O)ccc2c3c(c(=O)oc12)CCC3 -31.5% [activator], CCN1CCN(CC(=O)N2N=CCC2c2ccccc2)CC1 (centres undefined) 65.2% [activator], CC(C)CNS(=O)(=O)c1ccc(CCC(=O)N2CCCC2)cc1 30.5% [activator], CCc1ccc(S(=O)(=O)c2nnn3c2nc(N2CCCC2)c2sccc23)cc1 33.1% [activator]
